The results are deposited in PubChem (AID1053133; Broad Institute, 2014).

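Plate-reader measure of the Venus reporter marking one vaccinia stage in infected cells (the cell line is not named here); read time unknown. The test concentration is not given here. Percent change in Venus reporter signal; lower (more negative) values mean stronger inhibition of that viral stage.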

Values are in %. How 0% and 100% were set is not given here. Common to all entries: measured here: Venus reporter, other viral stage. Part of the compounds only, not a random draw; the main read-out is not listed here.

For C[C@@H]1CCCCO[C@@H](CN(C)S(=O)(=O)c2ccc(F)cc2)[C@H](C)CN([C@H](C)CO)C(=O)c2cc(NS(=O)(=O)c3cccs3)ccc2O1 the result was activity change (Venus) -34.23%.
For C[C@H]1CN([C@@H](C)CO)C(=O)Cc2cc(NC(=O)Nc3ccc(C(F)(F)F)cc3)ccc2O[C@H]1CN(C)CC1CCCCC1 the result was activity change (Venus) -38.22%.
For C[C@H]1CCCCO[C@@H](CN(C)S(=O)(=O)c2cccs2)[C@@H](C)CN([C@@H](C)CO)C(=O)c2cc(NS(=O)(=O)c3ccc(F)cc3)ccc2O1 the result was activity change (Venus) -22.82%.
For C[C@@H]1CCCCO[C@H](CN(C)Cc2ccc(C(F)(F)F)cc2)[C@H](C)CN([C@H](C)CO)C(=O)c2cc(NC(=O)CCC(F)(F)F)ccc2O1 the result was activity change (Venus) -67.29%.
For COc1ccc(CN(C)C[C@H]2OCCCC[C@H](C)Oc3ccc(NC(=O)Nc4ccc(C(F)(F)F)cc4)cc3C(=O)N([C@@H](C)CO)C[C@H]2C)cc1 the result was activity change (Venus) -37.66%.
For COc1cccc(-c2ccc3c(c2)[C@@H]2[C@@H](CCN2S(=O)(=O)c2ccc(F)cc2)[C@@H](CO)N3C)c1 the result was activity change (Venus) -30.62%.
For CN1c2ccc(-c3ccc(C#N)cc3)cc2[C@H]2[C@H](CCN2S(=O)(=O)c2cccc(F)c2)[C@H]1CO the result was activity change (Venus) -57.5%.
For CCCNC(=O)N1CC(=O)N2[C@@H](CO)[C@@H](c3ccc(C#Cc4ccc(F)cc4)cc3)[C@@H]2C1 the result was activity change (Venus) -24.48%.
For CCCC#Cc1ccc2c(c1)O[C@@H](CN(C)C(=O)Nc1ccc(OC)cc1)[C@@H](C)CN([C@@H](C)CO)S2(=O)=O the result was activity change (Venus) -43.68%.
For Cc1ccccc1S(=O)(=O)N1CCCCN2[C@@H](CO)[C@@H](c3ccc(C#CCN(C)C)cc3)[C@@H]2C1 the result was activity change (Venus) -37.99%.
For C[C@H](CO)N1C[C@H](C)[C@H](CN(C)C)Oc2cc(C#CC3CCCCC3)ccc2S1(=O)=O the result was activity change (Venus) -71.49%.
For C[C@@H]1CN([C@H](C)CO)S(=O)(=O)c2ccc(C#Cc3ccncc3)cc2O[C@H]1CN(C)S(=O)(=O)c1ccccc1 the result was activity change (Venus) -30.86%.
For C[C@@H]1CN([C@H](C)CO)C(=O)c2cccc(NC(=O)CCCCCC(=O)Nc3ccccc3N)c2O[C@@H]1CN(C)Cc1ccc(C(F)(F)F)cc1 the result was activity change (Venus) -53.74%.
For Cc1noc(C)c1S(=O)(=O)N(C)C[C@@H]1OCCCC[C@H](C)Oc2ccc(NC(=O)C3CCCCC3)cc2C(=O)N([C@@H](C)CO)C[C@@H]1C the result was activity change (Venus) -35.3%.
For COc1ccc(-c2ccc([C@H]3[C@@H](C#N)N(C(=O)C4CCCC4)[C@@H]3CO)cc2)cc1 the result was activity change (Venus) -25.32%.
For O=S(=O)(c1ccc(F)cc1)N1CCCCN2[C@@H](CO)[C@H](c3ccc(C#CC4CC4)cc3)[C@@H]2C1 the result was activity change (Venus) -30.36%.
For C[C@H](O)C#Cc1cnc2c(c1)C(=O)N([C@H](C)CO)C[C@@H](C)[C@@H](CN(C)Cc1ccc(-c3ccccc3)cc1)O2 the result was activity change (Venus) -30.75%.
For COc1ccccc1CNC(=O)C[C@H]1CC[C@@H]2[C@H](COC[C@H](O)CN2C(=O)Nc2ccc(C(F)(F)F)cc2)O1 the result was activity change (Venus) -25.93%.
For CCCC#Cc1cnc2c(c1)C(=O)N([C@H](C)CO)C[C@@H](C)[C@H](CN(C)Cc1ccc3c(c1)OCO3)O2 the result was activity change (Venus) -24.26%.
For N#Cc1cccc(-c2ccc3c(c2)[C@@H]2[C@@H](CCN2S(=O)(=O)c2ccccc2F)[C@@H](CO)N3)c1 the result was activity change (Venus) -30.06%.
For COc1ccc(-c2ccc([C@H]3[C@@H](CO)N4CCCCN(C(=O)c5ccc(F)cc5)C[C@H]34)cc2)cc1 the result was activity change (Venus) -61.71%.
For Cc1noc(C)c1S(=O)(=O)N(C)C[C@@H]1OCCCC[C@H](C)Oc2ccc(NS(=O)(=O)c3ccc(Cl)cc3)cc2C(=O)N([C@H](C)CO)C[C@@H]1C the result was activity change (Venus) -51.21%.
For CC(C)NC(=O)N1CC(=O)N2[C@H](CO)[C@@H](c3ccc(/C=C/c4ccccc4)cc3)[C@H]2C1 the result was activity change (Venus) -47.5%.
For C[C@@H]1CN([C@@H](C)CO)S(=O)(=O)c2ccc(-c3cccc(F)c3)cc2O[C@@H]1CN(C)S(=O)(=O)c1ccc(F)cc1 the result was activity change (Venus) -37.2%.

2 of the entries, repeated:

C[C@H]1CN([C@@H](C)CO)C(=O)Cc2cc(NC(=O)Nc3ccc(C(F)(F)F)cc3)ccc2O[C@H]1CN(C)CC1CCCCC1 gave activity change (Venus) -38.22%.
CCCC#Cc1cnc2c(c1)C(=O)N([C@H](C)CO)C[C@@H](C)[C@H](CN(C)Cc1ccc3c(c1)OCO3)O2 gave activity change (Venus) -24.26%.